Results deposited as PubChem BioAssay AID504793 (Drosophila RNAi Screening Center, 2011).

Purpose: 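Whole-genome screen for parts of the DNA damage checkpoint at G2/M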 (primary screen)
Cells: Drosophila S2R+ cells
Knock-down reagent: long dsRNA against Drosophila genes, about 0.25 µg dsRNA per well
Timing: 4 days of dsRNA, then 4 hours of drug before read-out
Challenge: doxorubicin 0.5 µM for 4 hours to cause double-strand breaks, in cells also given a low, harmless dose of dsRNA against nbs to sensitise the assay
Read-out: 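Per-well count of mitotic cells stained for phospho-histone H3 after doxorubicin exposure, used as mitotic index; counts are raw and not normalised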
Reading the numbers: mitotic cells: higher = more cells in mitosis, weaker G2 arrest
Call rule: 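a call needs confirmation in secondary tests, with other dsRNAs and a check of mitotic timing without damage, not just a high primary count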
Meaning of the calls: active = confirmed in follow-up tests; inactive = not confirmed
In all, the deposit lists about 23,000 reagents; below is an unselected part of those that have a named target and a result. In the full data, 62 (0.27%) were called active. 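Calls come from follow-up tests whose scores are not deposited, so confirmed genes may have low counts here; counts are not normalised per plate.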 The raw values are shown without normalisation. Entries without a mark were called inactive. Reagent sequences are not shown.

mitotic cells, replicate 1, by gene and reagent
CG11584: DRSC19408 11; DRSC25623 6
CG31752: DRSC22599 12
kdn (knockdown): DRSC18328 14
CG12009: DRSC08217 2; DRSC26937 5
CG17991: DRSC15294 7
CG9643: DRSC00722 2; DRSC27948 5
rasp: DRSC08191 2
Nrk (Neurospecific receptor kinase): DRSC07480 4
cmet (CENP-meta): DRSC03511 4
CG16734: DRSC15143 5
RpS16 (Ribosomal protein S16): DRSC04442 3; DRSC29812 7
wol (wollknaeuel): DRSC03077 6; DRSC27227 10
CG6271: DRSC16006 7; DRSC25865 6
CG5282: DRSC11775 4
CG15517: DRSC15056 8
CG10417: DRSC04846 8; DRSC27173 5
CG5597: DRSC04517 7
rdx (roadkill): DRSC16580 5; DRSC23120 9; DRSC29820 7
apt (apontic): DRSC23278 9; DRSC26181 4
nenya: DRSC13838 3
smash (smallish): DRSC12139 4; DRSC12239 11
FucTD (alpha1,3-fucosyltransferase D): DRSC08634 6
CG13081: DRSC02185 4
wash (washout): DRSC06302 2
Gmppa (GDP-mannose pyrophosphorylase A): DRSC07108 5; DRSC25683 9
cic (capicua): DRSC16918 9; DRSC21243 8; DRSC23217 4; DRSC25516 5; DRSC25800 4; DRSC30090 3
Chro (Chromator): DRSC11630 5
CG14355: DRSC14818 8

A portion of the results above:
mitotic cells, replicate 1, by gene and reagent
Nrk (Neurospecific receptor kinase): DRSC07480 4
cmet (CENP-meta): DRSC03511 4
CG16734: DRSC15143 5
RpS16 (Ribosomal protein S16): DRSC04442 3; DRSC29812 7
